Measurements taken from the supplement of paper PMC11732987, “Enantioselective OTUD7B fragment discovery through chemoproteomics screening and high-throughput optimisation” (Communications Chemistry, 2025).
The list shows a part of the results. The data scatter; read single values as rough.

The chains behind the UniProt entries cited, without tags or fusion partners. Where a name states a change or a piece, a line headed by the entry shows the natural chain unless it says otherwise. Residues count along the entry.
UniProt Q96C00, 1-21: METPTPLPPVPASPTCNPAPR
UniProt Q8IWR0: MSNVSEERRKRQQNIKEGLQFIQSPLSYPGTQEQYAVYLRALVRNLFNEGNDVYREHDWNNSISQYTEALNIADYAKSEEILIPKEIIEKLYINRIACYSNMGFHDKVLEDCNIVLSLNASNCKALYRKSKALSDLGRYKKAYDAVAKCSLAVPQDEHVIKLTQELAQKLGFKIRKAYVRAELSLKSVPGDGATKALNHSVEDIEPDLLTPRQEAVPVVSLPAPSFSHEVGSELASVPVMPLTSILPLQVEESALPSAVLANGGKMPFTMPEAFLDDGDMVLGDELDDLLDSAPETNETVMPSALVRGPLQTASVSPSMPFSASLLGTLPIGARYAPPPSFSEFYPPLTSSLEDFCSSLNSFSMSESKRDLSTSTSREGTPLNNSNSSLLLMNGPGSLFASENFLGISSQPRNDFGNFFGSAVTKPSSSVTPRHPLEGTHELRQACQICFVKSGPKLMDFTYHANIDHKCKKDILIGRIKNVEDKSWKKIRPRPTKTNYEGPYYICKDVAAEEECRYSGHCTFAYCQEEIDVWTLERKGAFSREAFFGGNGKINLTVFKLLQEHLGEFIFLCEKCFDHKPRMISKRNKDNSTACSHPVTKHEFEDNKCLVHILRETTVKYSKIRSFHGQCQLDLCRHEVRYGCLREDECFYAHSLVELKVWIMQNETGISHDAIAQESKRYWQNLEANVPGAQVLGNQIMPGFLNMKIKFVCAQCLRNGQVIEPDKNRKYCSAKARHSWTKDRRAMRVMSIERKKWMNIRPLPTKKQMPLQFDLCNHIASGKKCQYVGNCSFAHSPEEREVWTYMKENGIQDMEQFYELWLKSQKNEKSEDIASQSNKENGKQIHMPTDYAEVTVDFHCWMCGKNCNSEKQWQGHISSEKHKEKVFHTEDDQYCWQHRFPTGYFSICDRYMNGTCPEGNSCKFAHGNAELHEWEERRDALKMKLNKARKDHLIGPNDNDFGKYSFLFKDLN
UniProt Q9P1Q0: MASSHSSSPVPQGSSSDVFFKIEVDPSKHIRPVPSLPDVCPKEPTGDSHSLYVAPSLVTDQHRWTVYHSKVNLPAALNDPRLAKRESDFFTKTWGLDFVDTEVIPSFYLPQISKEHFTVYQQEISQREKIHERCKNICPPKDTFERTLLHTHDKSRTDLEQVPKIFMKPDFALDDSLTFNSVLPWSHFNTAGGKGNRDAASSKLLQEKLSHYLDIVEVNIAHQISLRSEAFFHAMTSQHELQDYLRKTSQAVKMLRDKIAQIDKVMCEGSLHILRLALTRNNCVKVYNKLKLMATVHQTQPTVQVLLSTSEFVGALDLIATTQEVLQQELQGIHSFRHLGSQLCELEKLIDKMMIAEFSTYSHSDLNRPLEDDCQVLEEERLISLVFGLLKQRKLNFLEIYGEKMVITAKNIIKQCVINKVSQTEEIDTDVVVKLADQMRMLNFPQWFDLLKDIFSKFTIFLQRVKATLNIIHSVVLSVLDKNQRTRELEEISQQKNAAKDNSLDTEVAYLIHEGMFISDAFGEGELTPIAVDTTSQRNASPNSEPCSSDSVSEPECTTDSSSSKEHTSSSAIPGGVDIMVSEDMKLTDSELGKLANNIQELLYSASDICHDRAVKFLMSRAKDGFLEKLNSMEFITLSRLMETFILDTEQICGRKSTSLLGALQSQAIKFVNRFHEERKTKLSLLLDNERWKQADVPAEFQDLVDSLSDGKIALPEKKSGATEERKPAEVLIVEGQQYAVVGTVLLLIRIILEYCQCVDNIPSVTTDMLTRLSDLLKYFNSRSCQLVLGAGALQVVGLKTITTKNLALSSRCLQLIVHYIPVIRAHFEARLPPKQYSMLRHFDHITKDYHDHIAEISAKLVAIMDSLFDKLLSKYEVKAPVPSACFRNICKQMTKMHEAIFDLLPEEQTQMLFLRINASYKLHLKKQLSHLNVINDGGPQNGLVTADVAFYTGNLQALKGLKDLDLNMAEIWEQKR
UniProt Q9UID3: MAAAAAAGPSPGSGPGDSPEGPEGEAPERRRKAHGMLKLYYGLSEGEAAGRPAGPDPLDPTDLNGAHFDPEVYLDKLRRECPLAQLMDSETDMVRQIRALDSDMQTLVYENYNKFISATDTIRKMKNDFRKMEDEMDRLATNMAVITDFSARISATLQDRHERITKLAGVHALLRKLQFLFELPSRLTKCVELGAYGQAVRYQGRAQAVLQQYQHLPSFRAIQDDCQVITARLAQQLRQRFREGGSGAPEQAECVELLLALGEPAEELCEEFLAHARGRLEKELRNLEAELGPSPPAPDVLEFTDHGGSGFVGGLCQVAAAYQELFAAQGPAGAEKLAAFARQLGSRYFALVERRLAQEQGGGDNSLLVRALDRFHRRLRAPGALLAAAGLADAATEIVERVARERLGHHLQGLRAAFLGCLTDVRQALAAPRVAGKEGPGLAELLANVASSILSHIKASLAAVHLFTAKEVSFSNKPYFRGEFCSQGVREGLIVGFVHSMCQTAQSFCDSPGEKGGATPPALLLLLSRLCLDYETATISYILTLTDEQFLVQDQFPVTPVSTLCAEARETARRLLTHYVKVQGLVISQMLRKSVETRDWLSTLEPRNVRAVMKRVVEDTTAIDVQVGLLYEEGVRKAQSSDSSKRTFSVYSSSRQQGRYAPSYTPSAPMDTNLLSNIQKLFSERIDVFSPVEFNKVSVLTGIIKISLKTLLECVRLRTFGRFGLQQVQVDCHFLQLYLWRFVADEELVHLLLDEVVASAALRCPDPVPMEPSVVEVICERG
UniProt Q9HCS7: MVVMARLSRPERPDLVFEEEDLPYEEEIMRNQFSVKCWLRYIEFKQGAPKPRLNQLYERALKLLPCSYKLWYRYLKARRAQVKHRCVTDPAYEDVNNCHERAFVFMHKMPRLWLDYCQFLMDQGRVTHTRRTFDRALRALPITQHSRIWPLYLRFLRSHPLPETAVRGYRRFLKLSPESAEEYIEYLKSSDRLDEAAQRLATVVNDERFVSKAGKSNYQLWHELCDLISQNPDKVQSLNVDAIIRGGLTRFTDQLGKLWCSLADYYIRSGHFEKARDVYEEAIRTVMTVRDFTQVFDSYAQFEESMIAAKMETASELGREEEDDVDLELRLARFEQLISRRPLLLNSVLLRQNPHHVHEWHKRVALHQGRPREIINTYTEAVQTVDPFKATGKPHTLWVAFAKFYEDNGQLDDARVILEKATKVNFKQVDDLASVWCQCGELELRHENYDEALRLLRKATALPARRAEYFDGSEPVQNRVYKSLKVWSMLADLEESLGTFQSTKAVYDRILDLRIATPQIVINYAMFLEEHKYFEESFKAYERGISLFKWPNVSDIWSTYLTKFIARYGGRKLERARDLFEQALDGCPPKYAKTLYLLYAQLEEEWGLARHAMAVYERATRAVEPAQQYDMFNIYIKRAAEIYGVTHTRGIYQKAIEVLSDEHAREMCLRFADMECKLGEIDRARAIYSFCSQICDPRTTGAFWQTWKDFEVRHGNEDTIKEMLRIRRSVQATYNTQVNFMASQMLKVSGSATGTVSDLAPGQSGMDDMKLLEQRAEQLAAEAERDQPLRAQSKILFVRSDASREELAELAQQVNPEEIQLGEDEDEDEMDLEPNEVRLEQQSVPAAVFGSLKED
UniProt Q8N3P4: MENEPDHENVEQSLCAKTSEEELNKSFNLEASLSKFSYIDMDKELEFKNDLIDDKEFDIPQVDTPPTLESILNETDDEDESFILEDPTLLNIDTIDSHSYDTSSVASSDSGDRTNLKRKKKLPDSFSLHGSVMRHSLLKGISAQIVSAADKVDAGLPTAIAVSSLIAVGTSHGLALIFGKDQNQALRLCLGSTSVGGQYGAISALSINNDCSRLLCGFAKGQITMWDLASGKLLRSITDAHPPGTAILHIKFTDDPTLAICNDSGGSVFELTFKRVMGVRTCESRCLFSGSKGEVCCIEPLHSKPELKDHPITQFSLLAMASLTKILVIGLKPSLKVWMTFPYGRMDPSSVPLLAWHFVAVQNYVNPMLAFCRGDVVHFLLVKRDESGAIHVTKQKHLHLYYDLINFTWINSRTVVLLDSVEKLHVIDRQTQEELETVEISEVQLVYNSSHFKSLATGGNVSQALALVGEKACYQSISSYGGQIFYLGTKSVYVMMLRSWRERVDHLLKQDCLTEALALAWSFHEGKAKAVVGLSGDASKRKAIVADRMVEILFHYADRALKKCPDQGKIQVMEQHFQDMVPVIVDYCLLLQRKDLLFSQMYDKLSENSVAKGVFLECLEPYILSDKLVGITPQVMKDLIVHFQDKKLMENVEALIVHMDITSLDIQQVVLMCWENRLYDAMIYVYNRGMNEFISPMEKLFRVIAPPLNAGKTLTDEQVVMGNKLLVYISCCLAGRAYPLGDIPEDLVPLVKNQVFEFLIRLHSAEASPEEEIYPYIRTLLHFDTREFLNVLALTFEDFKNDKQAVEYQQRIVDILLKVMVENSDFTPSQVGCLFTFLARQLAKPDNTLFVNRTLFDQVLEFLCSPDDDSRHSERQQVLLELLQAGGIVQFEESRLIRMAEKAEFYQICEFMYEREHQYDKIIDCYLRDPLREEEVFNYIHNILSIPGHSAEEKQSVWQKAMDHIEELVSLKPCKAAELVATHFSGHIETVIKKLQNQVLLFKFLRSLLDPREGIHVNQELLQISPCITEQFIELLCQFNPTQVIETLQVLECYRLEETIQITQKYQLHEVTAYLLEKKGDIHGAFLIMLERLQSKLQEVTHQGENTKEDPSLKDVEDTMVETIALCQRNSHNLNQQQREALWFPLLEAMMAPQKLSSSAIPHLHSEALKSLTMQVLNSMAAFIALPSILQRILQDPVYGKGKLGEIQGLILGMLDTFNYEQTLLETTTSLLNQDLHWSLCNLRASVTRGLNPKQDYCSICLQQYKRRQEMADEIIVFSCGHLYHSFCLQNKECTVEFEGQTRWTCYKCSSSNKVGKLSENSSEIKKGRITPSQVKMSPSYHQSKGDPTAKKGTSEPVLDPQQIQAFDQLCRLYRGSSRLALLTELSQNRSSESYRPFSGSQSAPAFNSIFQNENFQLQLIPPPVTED
UniProt Q5T9L3: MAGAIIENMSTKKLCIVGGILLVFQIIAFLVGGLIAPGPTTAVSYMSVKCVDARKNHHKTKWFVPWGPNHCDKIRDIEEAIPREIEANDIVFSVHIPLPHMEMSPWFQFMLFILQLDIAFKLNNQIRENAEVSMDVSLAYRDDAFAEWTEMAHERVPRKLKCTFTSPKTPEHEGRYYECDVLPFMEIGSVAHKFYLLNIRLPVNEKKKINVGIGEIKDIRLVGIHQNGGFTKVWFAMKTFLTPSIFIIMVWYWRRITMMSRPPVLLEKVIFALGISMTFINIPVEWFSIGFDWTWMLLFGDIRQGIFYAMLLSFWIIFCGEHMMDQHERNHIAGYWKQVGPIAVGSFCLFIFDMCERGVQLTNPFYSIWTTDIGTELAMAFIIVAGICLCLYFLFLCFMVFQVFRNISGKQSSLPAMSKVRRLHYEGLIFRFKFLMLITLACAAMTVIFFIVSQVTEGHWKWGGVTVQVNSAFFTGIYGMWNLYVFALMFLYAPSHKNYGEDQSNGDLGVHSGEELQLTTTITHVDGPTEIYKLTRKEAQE
UniProt O75152: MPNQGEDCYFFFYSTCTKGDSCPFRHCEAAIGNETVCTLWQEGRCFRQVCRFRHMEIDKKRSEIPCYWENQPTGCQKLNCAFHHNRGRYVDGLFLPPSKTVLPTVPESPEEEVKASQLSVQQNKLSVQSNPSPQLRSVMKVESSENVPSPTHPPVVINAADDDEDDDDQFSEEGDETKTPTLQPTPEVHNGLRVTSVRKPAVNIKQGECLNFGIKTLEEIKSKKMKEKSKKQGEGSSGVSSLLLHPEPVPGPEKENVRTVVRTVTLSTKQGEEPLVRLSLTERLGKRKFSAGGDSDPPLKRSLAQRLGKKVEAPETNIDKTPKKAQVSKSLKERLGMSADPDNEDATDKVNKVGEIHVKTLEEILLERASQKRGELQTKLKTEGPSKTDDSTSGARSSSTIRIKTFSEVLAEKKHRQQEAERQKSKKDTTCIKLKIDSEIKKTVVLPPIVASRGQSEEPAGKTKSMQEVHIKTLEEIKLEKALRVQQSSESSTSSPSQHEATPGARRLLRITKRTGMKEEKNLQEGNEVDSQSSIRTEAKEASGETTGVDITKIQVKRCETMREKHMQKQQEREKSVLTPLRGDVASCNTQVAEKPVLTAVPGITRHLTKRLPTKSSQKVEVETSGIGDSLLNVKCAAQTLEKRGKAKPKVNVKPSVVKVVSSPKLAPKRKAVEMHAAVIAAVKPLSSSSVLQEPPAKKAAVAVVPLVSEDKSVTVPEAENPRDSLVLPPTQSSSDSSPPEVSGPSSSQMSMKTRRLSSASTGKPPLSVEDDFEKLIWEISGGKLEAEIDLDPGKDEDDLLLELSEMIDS

Tests used:
[1] = compound: ClCC(=O)N[C@@H]1CCCc2ccccc12; test: log2 mean competition ratio of IA-DTB cysteine labelling (DMSO/compound) (log2 ratio); higher = stronger cysteine engagement by compound; settings: treatment time: 4 h, cell line lysate: HEK293T
Description: (§1)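 IA-DTB competitive cysteine chemoproteomics in HEK293T RIPA lysate. Lysates were treated with compound 29 or 30 at 50 or 200 µM for 4 h, then IA-DTB (500 µM, 1 h), trypsin-digested, NeutrAvidin-enriched and analysed by diaPASEF. Competition ratio = intensity DMSO / intensity compound (n=4 treated, n=64 DMSO); binding: mean log2 CR ≥ 1 and p ≤ 0.05 plus QC filters. Target is the cysteine site.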

[2] = compound: ClCC(=O)N[C@H]1CCCc2ccccc12; test: as above; settings: treatment time: 4 h, cell line lysate: HEK293T
Description: as §1

Row | Target | log2 mean competition ratio ([1]; 50 µM) | log2 mean competition ratio ([1]; 200 µM) | log2 mean competition ratio ([2]; 50 µM) | log2 mean competition ratio ([2]; 200 µM)
1 | ZBTB9 C16 (UniProt Q96C00) | -0.194 | -0.401 | 0.146 | -0.0818
2 | WDR75 C12 (UniProt Q8IWA0) | 0.258 | 0.0646 | 0.0321 | 0.0564
3 | XPOT C38 | 0.124 | -0.134 | 0.0461 | -0.201
4 | ZC3H7A C506 (UniProt Q8IWR0) | -0.156 | 0.0323 | 0.0151 | 0.0828
5 | VPS54 C886 (UniProt Q9P1Q0) | -0.0282 | 0.254 | 0.118 | 0.496
6 | WDR62 C41 (UniProt O43379) | 0.0792 | -0.185 | 0.306 | -0.225
7 | XPO7 C606 | -0.139 | -0.257 | -0.0372 | 0.0752
8 | WDR59 C163 (UniProt Q6PJI9) | -0.0679 | -0.418 | -0.264 | 0.0442
9 | XPO5 C765 (UniProt Q9HAV4) | -0.178 | -0.0436 | -0.027 | 0.174
10 | WDR62 C599 (UniProt O43379) | -0.223 | -0.147 | -0.336 | 0.176
11 | VPS51 C714 (UniProt Q9UID3) | -0.0975 | -0.112 | 0.18 | -0.115
12 | XAB2 C676 (UniProt Q9HCS7) | -0.116 | 0.311 | -0.0029 | 0.317
13 | XPO7 C767 | 0.421 | 0.193 | 0.0405 | 0.0977
14 | VPS8 C286 (UniProt Q8N3P4) | -0.0442 | 0.0661 | -0.358 | 0.141
15 | WDFY3 C143 (UniProt Q8IZQ1) | -0.264 | -0.191 | 0.289 | -0.0671
16 | WDR74 C134 (UniProt Q6RFH5) | -0.409 | -0.0574 | -0.463 | -0.237
17 | WLS C162 (UniProt Q5T9L3) | -0.0443 | 0.186 | 0.115 | 0.219
18 | WAPL C685 (UniProt Q7Z5K2) | 0.0125 | 0.474 | -0.166 | -0.103
19 | WDFY3 C36 (UniProt Q8IZQ1) | 0.12 | 0.0911 | -0.236 | -0.102
20 | WDR33 C249 (UniProt Q9C0J8) | -0.179 | 0.0945 | -0.705 | -0.046
21 | ZC3H11A C22 (UniProt O75152) | -0.191 | 0.17 | 0.129 | 0.215
22 | WDR46 C172 | -0.314 | 0.00535 | -0.0504 | -0.0898
23 | XRCC3 C221 (UniProt O43542) | 0.0393 | -0.0192 | -0.023 | -0.0332
24 | ZC3H13 C42 (UniProt Q5T200) | -0.0781 | 0.331 | -0.411 | 0.219
25 | VPS72 C292 (UniProt Q15906) | 0.136 | 0.0288 | 0.289 | -0.138

Quoted from above: entries 20–21
Row | Target | log2 mean competition ratio ([1]; 50 µM) | log2 mean competition ratio ([1]; 200 µM) | log2 mean competition ratio ([2]; 50 µM) | log2 mean competition ratio ([2]; 200 µM)
20 | WDR33 C249 (UniProt Q9C0J8) | -0.179 | 0.0945 | -0.705 | -0.046
21 | ZC3H11A C22 (UniProt O75152) | -0.191 | 0.17 | 0.129 | 0.215
